Measured values taken from US20150299314A1.
Results are given in words; binding and its absence hold for the method and conditions named. Some results given as binding are weak or reduced against the parent protein; the word gives no strength.

The chains behind the UniProt entries cited, without tags or fusion partners. Residues count along the entry.
UniProt Q14444, residues 2-709: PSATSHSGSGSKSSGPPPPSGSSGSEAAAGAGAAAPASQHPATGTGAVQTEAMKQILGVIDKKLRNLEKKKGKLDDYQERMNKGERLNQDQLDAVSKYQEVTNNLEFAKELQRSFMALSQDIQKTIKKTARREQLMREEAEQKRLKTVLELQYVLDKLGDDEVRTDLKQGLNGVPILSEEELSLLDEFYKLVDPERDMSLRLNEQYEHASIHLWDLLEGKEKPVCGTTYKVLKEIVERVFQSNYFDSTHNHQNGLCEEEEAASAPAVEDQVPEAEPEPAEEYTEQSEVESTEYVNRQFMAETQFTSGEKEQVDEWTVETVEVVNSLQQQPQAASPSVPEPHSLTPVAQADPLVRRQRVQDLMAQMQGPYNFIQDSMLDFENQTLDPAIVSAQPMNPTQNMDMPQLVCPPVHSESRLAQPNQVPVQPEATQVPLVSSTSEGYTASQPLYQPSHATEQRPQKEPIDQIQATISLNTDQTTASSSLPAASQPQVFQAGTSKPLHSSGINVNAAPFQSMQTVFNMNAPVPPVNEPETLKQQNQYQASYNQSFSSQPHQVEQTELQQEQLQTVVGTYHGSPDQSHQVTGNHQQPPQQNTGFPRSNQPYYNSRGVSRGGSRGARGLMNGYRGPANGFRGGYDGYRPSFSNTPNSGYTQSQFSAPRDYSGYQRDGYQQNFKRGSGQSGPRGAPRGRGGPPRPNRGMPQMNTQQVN

B1: anti-CAPRIN-1 monoclonal antibody #27 (antibody, V domains shown)
VH: GGGLVQPGGSMRLSCVASGFTFSNSWFNWVRQSPEKGLEWVAEIRLTSDNYAIYYAESVKGRFTISRDDSKSSVYLQMNNLRAEDTGIYYCTRPETARATFAYWGQGTTVTVSS
VL: DVLMTQTPLSLPVSLGDQASISCRSSQSIVHSNGNTYLEWYLQKPGQSPKVLIYKVFNRFSGVPDRFSGSGSGTDFTLKISRVEAEDLGVYYCFQGSHVPRTFGGGTKLNQTG
B2: anti-CAPRIN-1 monoclonal antibody #28 (antibody, V domains shown)
VH: GPDLVKPGASVKISCKASGYSFTAYYMHWVKQSHGKSLEWIGRVNPNNGGTTYNQKFKGKAILTVDKSSSTAYMELRSLTFEDSAVYYCARRIYYGYFDYWGQGTTVTVSS
VL: AFFAVSLGQRATISCKASQSVDYDGDSYMNWYQQKPGQPPKLLIYVASNLESGVPARFSGSGSGTDFTLNIHPVEEEDAATYYCQQSNEDPYTFGGGTKLEIKQ
B3: anti-CAPRIN-1 monoclonal antibody #29 (antibody, V domains shown)
VH: GAELVKPGASVKLSCTASGLNIRDIYMHWVKQRPEQGLEWIGKIDPANGNTKYDPKFQGKATITADTSSNTAYVQLSSLTSEDTAVYYCAGTGDYWGQGTTVTVSS
VL: GTCGDIVMSQSPSSLAVSAGEKVTMSCKSSQSLLNSRTRKNYLAWVQHKPGQSPRLLIYWASTRESGVPDRFTGSGSGTDFTLTISSVQAEDLAVYYCRQSYNLVTFGAGPS

Each binder was assayed against CAPRIN-1 protein expressed on the cell surface of human cancer cells (human) (UniProt Q14444) (assay: flow cytometry, TGBC14TKB cells, as in Example 10).

binding, binds:
B1
B2
B3
